Measured values from patent US20110009473A1 (CEDARS SINAI MEDICAL CENTER, published 2011).
Changes are numbered by the printed parent chain. Names and notes keep the numbering of the source. Results are given in words; binding and its absence hold for the method and conditions named. In cells and extracts the contact can be indirect. Some entries that bind do so weakly or less than the wild type. For part of these data: Tags and fused reporters may be left off the sequences shown.

Experiments:
[1] = biological target: T1, Aurora Kinase A (human) (UniProt O14965); test: His-tag pull-down
T1 sequence (biotin-lysine labeled during synthesis when used as prey in the pull-down, looked up): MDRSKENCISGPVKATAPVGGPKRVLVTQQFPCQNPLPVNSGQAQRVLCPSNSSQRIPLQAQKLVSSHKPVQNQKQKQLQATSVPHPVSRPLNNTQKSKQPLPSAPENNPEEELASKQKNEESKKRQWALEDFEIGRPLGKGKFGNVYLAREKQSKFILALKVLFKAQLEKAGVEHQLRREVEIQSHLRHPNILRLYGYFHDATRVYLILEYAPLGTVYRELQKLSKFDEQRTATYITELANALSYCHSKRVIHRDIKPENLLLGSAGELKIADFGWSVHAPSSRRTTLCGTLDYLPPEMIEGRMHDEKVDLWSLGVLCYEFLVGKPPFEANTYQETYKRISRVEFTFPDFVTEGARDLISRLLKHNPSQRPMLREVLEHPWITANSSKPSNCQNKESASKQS

[2] = biological target: T1, Aurora Kinase A (human); test: co-immunoprecipitation from transfected HCT116 PTTG1-/- cells
[3] = biological target: T2, His-tagged PTTG1 (human) (UniProt O95997); test: His-tag pull-down, His PTTG1 as bait, Aurora Kinase A as prey
T2 sequence: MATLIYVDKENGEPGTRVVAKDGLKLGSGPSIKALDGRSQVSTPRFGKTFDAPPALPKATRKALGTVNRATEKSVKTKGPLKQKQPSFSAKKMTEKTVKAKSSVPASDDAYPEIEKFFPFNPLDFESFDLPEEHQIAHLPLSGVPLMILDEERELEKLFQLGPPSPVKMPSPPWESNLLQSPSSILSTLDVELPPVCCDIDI

B1: His-tagged PTTG1 (protein, not shown: small tags and cut ends)
chain: T2 sequence
- binding [1]: binds

B2: PTTG1 S181A mutation (M9) (protein)
chain: T2 sequence with S181A
- binding [2]: binds

B3: Aurora Kinase A (enzyme, human, UniProt O14965 1-403, looked up)
chain: T1 sequence (biotin-lysine labeled during synthesis when used as prey in the pull-down, looked up)
modifications: biotin-lysine labeled during synthesis when used as prey in the pull-down
- binding [3]: binds
